Laboratory results as given in the supplement of paper PMC12889115.
The list shows a part of the results. These are raw signals, not scaled to a control.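 First-pass screen: polymyxin B was added at a level that permeabilizes the Salmonella outer membrane while sparing the inner membrane. DMSO wells, with and without polymyxin B, defined maximum growth. Because plates differed from one another, each plate's data were ranked separately and the compounds with the lowest OD600 were carried forward as hits.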

Test system: Salmonella enterica serovar Typhimurium SL1344
Assay: bacterial growth OD600 after 18 h with compound and polymyxin B; higher = more bacterial growth (less inhibition)
Details: 50 µM, Mueller-Hinton broth

CCOC(=O)CC1COCCN1C(=O)c1cn(Cc2ccccc2Cl)nn1 (stereo unspecified)
bacterial growth OD600 (polymyxin B 1 µg/mL): 0.883

Cc1oc(-c2cccs2)nc1CN1CCCC(Nc2ccccc2)C1 (stereo unspecified)
bacterial growth OD600 (polymyxin B 1 µg/mL): 0.704

Cc1ccc(N2CCC(C3CCN(c4ncccn4)CC3)C2)nc1 (stereo unspecified)
bacterial growth OD600 (polymyxin B 0.75 µg/mL): 0.848

Cc1nn(C)cc1CN(C)CC1(O)CCCN(Cc2ccc(F)cc2)C1=O (stereo unspecified)
bacterial growth OD600 (polymyxin B 1 µg/mL): 0.929

CCOC(=O)c1ccc(CNC(=O)C2CC(=O)c3sc(NC(=O)Cc4ccccc4)nc3C2)o1 (stereo unspecified)
bacterial growth OD600 (polymyxin B 0.75 µg/mL): 0.803

Cc1ccccc1CC(C1CCN(C(=O)/C=C/c2ccccc2)CC1)N(C)C(=O)C1CCC1 (stereo unspecified)
bacterial growth OD600 (polymyxin B 0.75 µg/mL): 0.002

COCCN1CCN(C(=O)CC2(c3ccccc3C)CC(=O)N(Cc3ccncc3)C2=O)CC1 (stereo unspecified)
bacterial growth OD600 (polymyxin B 0.75 µg/mL): 0.881

CCOc1ccccc1CN1CCN(Cc2cnn(CC)c2)CC1CCO (stereo unspecified)
bacterial growth OD600 (polymyxin B 1 µg/mL): 0.995

CC(C)(C)CN1CCC(C2CCN(C(=O)c3csnn3)CC2)C1 (stereo unspecified)
bacterial growth OD600 (polymyxin B 0.75 µg/mL): 0.802

CCN(CC)CC(O)COc1ccc(CN2CCCN(C(C)=O)CC2)cc1OC (stereo unspecified)
bacterial growth OD600 (polymyxin B 0.75 µg/mL): 0.858

CCCCN(Cc1ccccc1)C(=O)c1cc(NC(C)=O)c2c(c1)ncn2CCc1ccccn1
bacterial growth OD600 (polymyxin B 0.75 µg/mL): 0.801

O=C(NC1CCCCCC1)C1CCCN(C2CCN(C(=O)C3CC3)CC2)C1 (stereo unspecified)
bacterial growth OD600 (polymyxin B 1 µg/mL): 0.853

CN(CC1(O)CCCN(Cc2ccc(F)c(F)c2)C1=O)C1CCOCC1 (stereo unspecified)
bacterial growth OD600 (polymyxin B 1 µg/mL): 1.04

COc1ccc(OCc2cc(C(=O)N3CCCCCCC3)n[nH]2)c(Cl)c1
bacterial growth OD600 (polymyxin B 0.75 µg/mL): 0.526

CCOC(=O)CN(C)c1ccc(-c2nc(Cc3ccc(OC)cc3)no2)cn1
bacterial growth OD600 (polymyxin B 1 µg/mL): 0.775

CC(C)Cc1nc2cc(NS(=O)(=O)N(C)C)cc(C(=O)N3CCCCC3c3cccnc3)c2n1C (stereo unspecified)
bacterial growth OD600 (polymyxin B 0.75 µg/mL): 0.846

CCN1CCCC(CCC(=O)NCc2ccc(OC)cc2OC)C1 (stereo unspecified)
bacterial growth OD600 (polymyxin B 1 µg/mL): 1.08

CCn1cc(CN2CCCC(C(=O)c3ccc4cc(OC)ccc4c3)C2)c(C)n1 (stereo unspecified)
bacterial growth OD600 (polymyxin B 1 µg/mL): 0.749

CN(C)c1ncccc1CNS(=O)(=O)c1cccc(F)c1
bacterial growth OD600 (polymyxin B 1 µg/mL): 0.96

CCOC(=O)C1(CCc2ccccc2)CCCN(C(=O)C2=C(C)OCCO2)C1 (stereo unspecified)
bacterial growth OD600 (polymyxin B 1 µg/mL): 0.723

C#CCN(CC=C)C(=O)c1cc(OC)ccc1OC1CCN(C(C)=O)CC1
bacterial growth OD600 (polymyxin B 1 µg/mL): 0.974

CC(C)Cc1nc2cc(NS(=O)(=O)N(C)C)cc(C(=O)NCC(C)Oc3cccnc3)c2n1C (stereo unspecified)
bacterial growth OD600 (polymyxin B 0.75 µg/mL): 0.766

Cn1cc(CCC(=O)NC2CC(=O)N(Cc3ccccc3Cl)C2)cn1 (stereo unspecified)
bacterial growth OD600 (polymyxin B 1 µg/mL): 0.92

O=C1CCCN1CCCC(=O)N1CCCC(CCc2ccccc2)C1 (stereo unspecified)
bacterial growth OD600 (polymyxin B 0.75 µg/mL): 0.853

Clc1ccc(CN2CCC(C3CCN(Cc4ncc[nH]4)CC3)C2)cc1 (stereo unspecified)
bacterial growth OD600 (polymyxin B 0.75 µg/mL): 0.777

COc1cc(=O)n2c(c1C(=O)N(C)Cc1nonc1C)CCN(Cc1cccc3cccnc13)CC2
bacterial growth OD600 (polymyxin B 0.75 µg/mL): 0.81

O=C(c1cc(COc2cccc(C(F)(F)F)c2)[nH]n1)N1CCCC(CO)C1 (stereo unspecified)
bacterial growth OD600 (polymyxin B 0.75 µg/mL): 0.812

COc1ccccc1C1(CC(=O)N2CCC(C(O)c3cccs3)CC2)CC(=O)N(C)C1=O (stereo unspecified)
bacterial growth OD600 (polymyxin B 0.75 µg/mL): 0.828

O=C(NCc1ccc2c(c1)OCO2)C1CCC(=O)N(CCN2CCOCC2)C1 (stereo unspecified)
bacterial growth OD600 (polymyxin B 1 µg/mL): 1.2

Cc1c(CC(=O)NCC(F)(F)F)c2c(n1Cc1ccccc1)CCCC2=O
bacterial growth OD600 (polymyxin B 1 µg/mL): 1.12

O=C1O[C@@H]2CN(Cc3c[nH]cn3)C[C@@H]2N1CCCc1ccc(F)cc1
bacterial growth OD600 (polymyxin B 0.75 µg/mL): 0.895
